B1: V5-Cx37 (wild type) [rat] / GFP-LC3B (expressed in HEK293A cells) [not stated (human cDNA cloned; a plasmid from Dr. Yoshimori also named)] (parent complex)
chain 1: MGDWGFLEKLLDQVQEHSTVVGKIWLTVLFIFRILILGLAGESVWGDEQSDFECNTAQPGCTNVCYDQAFPISHIRYWVLQFLFVSTPTLIYLGHVIYLSRREERLRQKEGELRALPSKDPHVERALAAIEHQMAKISVAEDGRLRIRGALMGTYVISVLCKSVLEAGFLYGQWRLYGWTMEPVFVCQRAPCPHVVDCYVSRPTEKTIFIIFMLVVGVISLVLNLLELVHLLCRCVSREIKARRDHDTRPAQGSASDPYPEQVFFYLPMGEGPSSPPCPTYNGLSSTEQNWANLTTEERLTSTRPPPFVNAAPQGGQKSSSRPNSSASKKQYV
chain 2: not shown
B2: V5-Cx50 (wild type) [rat] / GFP-LC3B (expressed in HEK293A cells) [not stated (human cDNA cloned; a plasmid from Dr. Yoshimori also named)] (parent complex)
chain 1: MGDWSFLGNILEEVNEHSTVIGRVWLTVLFIFRILILGTAAEFVWGDEQSDFVCNTQQPGCENVCYDEAFPISHIRLWVLQIIFVSTPSLMYVGHAVHHVRMEEKRKDREAEELCQQSRSNGGERVPIAPDQASIRKSSSSSKGTKKFRLEGTLLRTYVCHIIFKTLFEVGFIVGHYFLYGFRILPLYRCSRWPCPNVVDCFVSRPTEKTIFILFMLSVAFVSLFLNIMEMSHLGMKGIRSAFKRPAEQPLGEIAEKSLHSIAVSSIQKAKGYQLLEEEKIVSHYFPLTEVGMVETSPLSAKPFSQFEEKIGTGPLADMSRGYQETLPSYAQVGAQEVEREEQPVEEAVEPEVGEKKQEAEKVAPEGQETVAVPDGEKVETPGVGKDDEKEELQAEKVTKQGLSAEKAPTLCPELTTDDNRPLSRLSKASSRARSDDLTI
chain 2: not shown

In the first experiment the parent is B1. As to the kind of experiment: co-immunoprecipitation (IP: V5) and Western blot quantification; HEK293A cell lysates; read off a plot. On the technique in general: Immunoblotting shows a protein as a band on a membrane.
chain 1 W4A, chain 1 L7A: the ratio to parent was approximately 0.44.

Variants of B2 are the subject of another experiment. The experiment is described as above.
In the case of chain 1 W4A, chain 1 L7A, the ratio to parent is approximately 0.61.

(Values after publication PMC7226732 (2020).)
